# Measurements from PubChem BioAssay AID1487 (National Center for Advancing Translational Sciences (NCATS), 2009).
# Some of the results follow. Further columns of the screen follow, without active or inactive calls. The list favours compounds with an active or inconclusive main result. Potencies come from curve fits of mixed quality, noted in brackets.
# Test: qHTS Assay for Modulators of Lamin A Splicing
# Conditions: HeLa LMNA splicing GFP/RFP minigene ratio, 48 h
# Outline: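 S3 HeLa cells stably expressing lamin A-EGFP splicing minigene plus DsRed2, 600 cells/well, 48 h compound exposure at 37C. Laser-scanning cytometry; analysed as GFP (500-530 nm)/RFP (575-640 nm) total intensity ratio; 0.5% DMSO vehicle.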
# [1] = measured here: GFP splicing reporter channel
# [2] = measured here: RFP viability control channel
SMILES,AC50 [1],AC50 [2]
O=C(CCOc1ccccc1)N(Cc1cccnc1)c1nc2c(F)cc(F)cc2s1,"15.8 µM [falling, single point]","35.5 µM [falling, single point]"
O=C(Nc1cc(C(F)(F)F)ccc1N1CCCCC1)c1cccc([N+](=O)[O-])c1,–,"12.6 µM [rising, single point]"
Cc1ccc(C(=O)OCC(=O)NC2CCCCC2)s1,"10 µM [falling, single point]","10 µM [falling, partial curve]"
Cc1cc(C(=O)COc2ccc(-c3nnco3)cc2)c(C)n1Cc1ccccc1,–,"14.1 µM [rising, partial curve]"
O=C(c1ccc([N+](=O)[O-])cc1[N+](=O)[O-])N1CCCC1,"0.00316 µM [rising, full curve, poor fit]",–
Cc1c(Cl)c([N+](=O)[O-])nn1Cc1ccc(C(=O)N/N=C\c2cc(Cl)ccc2O)o1,"5.62 µM [falling, single point]",–
COc1ccccc1-c1cncnc1-n1ccnc1,–,"25.1 µM [falling, partial curve, poor fit]"
O=C(/C=C/c1ccc(-c2ccccc2)o1)c1ccccc1,"12.6 µM [falling, partial curve]","28.2 µM [falling, single point]"
COc1ccc(C(=O)NCC(=O)OCC(=O)c2ccc3c(c2)NC(=O)CO3)cc1OC,–,"0.00447 µM [falling, full curve, poor fit]"
COc1ccc2c(CN3CCN(S(=O)(=O)c4cccs4)CC3)cc(=O)oc2c1,–,"12.6 µM [rising, partial curve]"
COc1ccc(-c2cnn3c(N)c(S(=O)(=O)C(C)(C)C)cnc23)cc1,"35.5 µM [falling, single point]","22.4 µM [falling, single point]"
NNC(=O)COc1ccc(C2SCCS2)cc1,–,"2.82 µM [falling, partial curve, poor fit]"
CCOc1ccc(NC(=O)C2CCN(C(=O)N3CC(C)Oc4ccc(Cl)cc43)CC2)cc1 (stereo not drawn),"15.8 µM [rising, single point]","35.5 µM [rising, single point]"
COc1ccc(S(=O)(=O)N2CCOCC2)cc1Br,"0.0251 µM [falling, full curve, poor fit]","7.08 µM [falling, partial curve, poor fit]"
Cc1ccc(-n2cnc3scc(-c4cccs4)c3c2=O)cc1,–,"11.2 µM [rising, single point]"
Cc1ncc(CN2CCCC(CCC(=O)NCc3ccccc3F)C2)s1 (stereo not drawn),–,"2 µM [falling, full curve, poor fit]"
CCOc1cc(-c2c(C#N)c(N)nc3c2CCCC3)ccc1O,–,"15.8 µM [rising, partial curve, poor fit]"
CC(C)CC(=O)Nc1nnc(S(=O)(=O)N(CC(C)C)c2ccccc2)s1,"1.26 µM [rising, full curve]",–
CCN(CC)C(=O)CN1C(=O)C2CC=C(Cl)CC2C1=O (stereo not drawn),–,"12.6 µM [falling, partial curve, poor fit]"
CC(C)CN(C(=O)CN1CCCCCC1)c1c(N)n(CC(C)C)c(=O)[nH]c1=O,"1.12 µM [rising, full curve, poor fit]",–
O=S(=O)(Nc1ccc(O)c(Sc2nc3ccccc3s2)c1)c1ccc(Cl)cc1,"11.2 µM [rising, single point]","15.8 µM [rising, single point]"
O=C(CN1CCCCC1)Nc1ccc(NC(=O)c2ccccc2Cl)cc1Cl,–,"0.178 µM [rising, full curve, poor fit]"
CCOC(=O)c1ccccc1NC(=O)c1ccccc1SC,–,"28.2 µM [rising, single point]"
Cc1ccc(OCC(=O)NC2CCCc3ccccc32)c(C)c1 (stereo not drawn),–,"25.1 µM [rising, single point]"
O=S1(=O)CC2N=C(N(Cc3c(F)cccc3Cl)c3ccccc3F)SC2C1 (stereo not drawn),–,"8.91 µM [rising, partial curve]"
CC(C)C(=O)OCC(=O)Nc1ccc(N=Nc2ccccc2)cc1,–,"35.5 µM [rising, single point]"

# Compounds from the list above containing two or more sulfur atoms, in the order listed:
SMILES,AC50 [1],AC50 [2]
COc1ccc2c(CN3CCN(S(=O)(=O)c4cccs4)CC3)cc(=O)oc2c1,–,"12.6 µM [rising, partial curve]"
NNC(=O)COc1ccc(C2SCCS2)cc1,–,"2.82 µM [falling, partial curve, poor fit]"
Cc1ccc(-n2cnc3scc(-c4cccs4)c3c2=O)cc1,–,"11.2 µM [rising, single point]"
CC(C)CC(=O)Nc1nnc(S(=O)(=O)N(CC(C)C)c2ccccc2)s1,"1.26 µM [rising, full curve]",–
O=S(=O)(Nc1ccc(O)c(Sc2nc3ccccc3s2)c1)c1ccc(Cl)cc1,"11.2 µM [rising, single point]","15.8 µM [rising, single point]"
O=S1(=O)CC2N=C(N(Cc3c(F)cccc3Cl)c3ccccc3F)SC2C1 (stereo not drawn),–,"8.91 µM [rising, partial curve]"
